# Drug screen on melanoma cell lines: cell count

Values as published with doi:10.1371/journal.pone.0140310, rounded.

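The test systems are human melanoma cell lines, treated with a pair of drugs for 72 h and then stained and imaged. Each value is the count of nuclei relative to DMSO-treated wells, in %, so that 100 equals the control. Concentrations were fixed for each drug; these are the higher of two levels. No replicate spread is given; individual values may be noisy.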
An unselected part of the screen is shown.
A dash means that no value is listed here.

Drug key:
bortezomib (0.005 µM): CC(C)C[C@H](NC(=O)[C@H](Cc1ccccc1)NC(=O)c1cnccn1)B(O)O
OSU-03012 (5 µM): NCC(=O)Nc1ccc(-n2nc(C(F)(F)F)cc2-c2ccc3c(ccc4ccccc43)c2)cc1
SNS-314 (0.004 µM): O=C(Nc1cccc(Cl)c1)Nc1ncc(CCNc2ncnc3ccsc23)s1
GSK650394 (0.8 µM): O=C(O)c1ccc(-c2c[nH]c3ncc(-c4ccccc4)cc23)cc1C1CCCC1
cediranib (2 µM): COc1cc2c(Oc3ccc4[nH]c(C)cc4c3F)ncnc2cc1OCCCN1CCCC1
KU-55933 (5 µM): O=c1cc(-c2cccc3c2Sc2ccccc2S3)oc(N2CCOCC2)c1
STA-4783 (0.03 µM): CN(NC(=O)CC(=O)NN(C)C(=S)c1ccccc1)C(=S)c1ccccc1
temozolomide (10 µM): Cn1nnc2c(C(N)=O)ncn2c1=O
A-769662 (10 µM): N#Cc1c(O)c2c(-c3ccc(-c4ccccc4O)cc3)csc2[nH]c1=O
ENMD-2076 (0.2 µM): Cc1cc(Nc2cc(N3CCN(C)CC3)nc(/C=C/c3ccccc3)n2)n[nH]1
everolimus (0.1 µM): CO[C@H]1C[C@@H]2CC[C@@H](C)[C@@](O)(O2)C(=O)C(=O)N2CCCC[C@H]2C(=O)O[C@H]([C@H](C)C[C@@H]2CC[C@@H](OCCO)[C@H](OC)C2)CC(=O)[C@H](C)/C=C(\C)[C@@H](O)[C@@H](OC)C(=O)[C@H](C)C[C@H](C)/C=C/C=C/C=C/1C

Combination	C32	A101D	WM451Lu	A2058	WM3619	COLO 829
SNS-314 + cediranib	97.6	-	73.8	-	83.6	89.0
A-769662 + temozolomide	104	-	91.9	-	74.9	-
everolimus + bortezomib	29.3	-	17.4	-	2.7	15.6
STA-4783 + GSK650394	33.7	-	78.3	-	17.7	55.6
A-769662 + ENMD-2076	109	-	86.8	-	71.2	83.9
cediranib + GSK650394	75.6	-	94.7	-	70.6	76.8
OSU-03012 + ENMD-2076	92.1	-	87.4	-	80.3	69.1
STA-4783 + SNS-314	24.8	-	32.1	-	11.9	40.7
everolimus + cediranib	77.5	-	71.2	-	63.9	74.4
STA-4783 + OSU-03012	31.0	-	87.7	-	11.5	46.1
A-769662 + GSK650394	82.0	-	86.1	-	74.6	98.2
cediranib + OSU-03012	84.2	-	82.7	-	7.2	68.4
temozolomide + GSK650394	-	-	99.4	-	76.9	-
KU-55933 + cediranib	98.5	-	-	-	-	103
everolimus + STA-4783	30.2	-	60.3	-	14.0	54.9
bortezomib + GSK650394	34.3	-	30.2	-	5.6	13.1
temozolomide + OSU-03012	92.3	-	95.3	-	112	63.0
STA-4783 + ENMD-2076	18.9	-	84.0	-	4.5	45.9
OSU-03012 + bortezomib	15.3	-	25.5	-	6.5	15.8
ENMD-2076 + bortezomib	30.5	-	22.8	-	6.0	12.1
SNS-314 + temozolomide	-	-	45.7	-	88.2	-
GSK650394 + KU-55933	110	-	88.0	-	55.7	83.5
everolimus + OSU-03012	-	-	68.9	-	14.0	-
cediranib + ENMD-2076	105	-	75.3	-	74.4	108
SNS-314 + KU-55933	73.2	-	61.6	-	103	93.7
cediranib + A-769662	96.2	-	103	-	72.3	86.2
KU-55933 + A-769662	114	101	-	94.2	-	-
temozolomide + everolimus	80.4	-	75.5	-	60.6	70.6
OSU-03012 + KU-55933	102	-	90.2	-	6.8	73.0
temozolomide + KU-55933	102	-	91.2	-	88.7	84.3
STA-4783 + KU-55933	29.8	-	-	-	-	47.9
SNS-314 + ENMD-2076	-	-	45.0	-	70.9	-
ENMD-2076 + everolimus	76.9	-	67.7	-	71.4	76.9
SNS-314 + bortezomib	32.6	-	20.6	-	2.5	16.5
SNS-314 + everolimus	61.2	-	74.3	-	73.5	97.3
everolimus + KU-55933	91.6	-	71.4	-	75.4	97.4

The first 2 entries again:

Combination,C32,A101D,WM451Lu,A2058,WM3619,COLO 829
SNS-314 + cediranib,97.6,-,73.8,-,83.6,89.0
A-769662 + temozolomide,104,-,91.9,-,74.9,-